{
  "sequences": {"note": "Chains of the proteins cited; added tags and fusions are not shown.", "UniProt Q8K0V4": "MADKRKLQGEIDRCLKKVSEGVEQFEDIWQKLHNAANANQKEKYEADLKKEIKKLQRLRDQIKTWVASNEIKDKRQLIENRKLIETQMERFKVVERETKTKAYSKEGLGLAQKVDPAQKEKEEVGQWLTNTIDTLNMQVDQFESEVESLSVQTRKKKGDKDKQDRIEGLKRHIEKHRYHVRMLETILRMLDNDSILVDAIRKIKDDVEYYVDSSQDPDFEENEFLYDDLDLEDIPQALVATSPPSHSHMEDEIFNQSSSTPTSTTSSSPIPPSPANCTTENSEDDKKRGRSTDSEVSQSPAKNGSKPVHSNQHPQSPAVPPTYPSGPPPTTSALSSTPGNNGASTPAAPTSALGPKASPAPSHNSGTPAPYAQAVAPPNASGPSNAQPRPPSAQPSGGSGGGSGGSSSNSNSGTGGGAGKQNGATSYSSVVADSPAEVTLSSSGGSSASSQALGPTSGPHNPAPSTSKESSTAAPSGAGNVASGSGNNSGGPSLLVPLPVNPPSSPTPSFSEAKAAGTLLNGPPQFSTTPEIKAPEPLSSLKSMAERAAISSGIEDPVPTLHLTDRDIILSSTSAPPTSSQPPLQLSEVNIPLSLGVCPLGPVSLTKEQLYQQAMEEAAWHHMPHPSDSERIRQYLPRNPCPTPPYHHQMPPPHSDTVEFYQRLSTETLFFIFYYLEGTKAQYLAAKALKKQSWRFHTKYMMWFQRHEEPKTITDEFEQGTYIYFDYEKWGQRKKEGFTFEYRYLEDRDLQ", "UniProt A5YKK6": "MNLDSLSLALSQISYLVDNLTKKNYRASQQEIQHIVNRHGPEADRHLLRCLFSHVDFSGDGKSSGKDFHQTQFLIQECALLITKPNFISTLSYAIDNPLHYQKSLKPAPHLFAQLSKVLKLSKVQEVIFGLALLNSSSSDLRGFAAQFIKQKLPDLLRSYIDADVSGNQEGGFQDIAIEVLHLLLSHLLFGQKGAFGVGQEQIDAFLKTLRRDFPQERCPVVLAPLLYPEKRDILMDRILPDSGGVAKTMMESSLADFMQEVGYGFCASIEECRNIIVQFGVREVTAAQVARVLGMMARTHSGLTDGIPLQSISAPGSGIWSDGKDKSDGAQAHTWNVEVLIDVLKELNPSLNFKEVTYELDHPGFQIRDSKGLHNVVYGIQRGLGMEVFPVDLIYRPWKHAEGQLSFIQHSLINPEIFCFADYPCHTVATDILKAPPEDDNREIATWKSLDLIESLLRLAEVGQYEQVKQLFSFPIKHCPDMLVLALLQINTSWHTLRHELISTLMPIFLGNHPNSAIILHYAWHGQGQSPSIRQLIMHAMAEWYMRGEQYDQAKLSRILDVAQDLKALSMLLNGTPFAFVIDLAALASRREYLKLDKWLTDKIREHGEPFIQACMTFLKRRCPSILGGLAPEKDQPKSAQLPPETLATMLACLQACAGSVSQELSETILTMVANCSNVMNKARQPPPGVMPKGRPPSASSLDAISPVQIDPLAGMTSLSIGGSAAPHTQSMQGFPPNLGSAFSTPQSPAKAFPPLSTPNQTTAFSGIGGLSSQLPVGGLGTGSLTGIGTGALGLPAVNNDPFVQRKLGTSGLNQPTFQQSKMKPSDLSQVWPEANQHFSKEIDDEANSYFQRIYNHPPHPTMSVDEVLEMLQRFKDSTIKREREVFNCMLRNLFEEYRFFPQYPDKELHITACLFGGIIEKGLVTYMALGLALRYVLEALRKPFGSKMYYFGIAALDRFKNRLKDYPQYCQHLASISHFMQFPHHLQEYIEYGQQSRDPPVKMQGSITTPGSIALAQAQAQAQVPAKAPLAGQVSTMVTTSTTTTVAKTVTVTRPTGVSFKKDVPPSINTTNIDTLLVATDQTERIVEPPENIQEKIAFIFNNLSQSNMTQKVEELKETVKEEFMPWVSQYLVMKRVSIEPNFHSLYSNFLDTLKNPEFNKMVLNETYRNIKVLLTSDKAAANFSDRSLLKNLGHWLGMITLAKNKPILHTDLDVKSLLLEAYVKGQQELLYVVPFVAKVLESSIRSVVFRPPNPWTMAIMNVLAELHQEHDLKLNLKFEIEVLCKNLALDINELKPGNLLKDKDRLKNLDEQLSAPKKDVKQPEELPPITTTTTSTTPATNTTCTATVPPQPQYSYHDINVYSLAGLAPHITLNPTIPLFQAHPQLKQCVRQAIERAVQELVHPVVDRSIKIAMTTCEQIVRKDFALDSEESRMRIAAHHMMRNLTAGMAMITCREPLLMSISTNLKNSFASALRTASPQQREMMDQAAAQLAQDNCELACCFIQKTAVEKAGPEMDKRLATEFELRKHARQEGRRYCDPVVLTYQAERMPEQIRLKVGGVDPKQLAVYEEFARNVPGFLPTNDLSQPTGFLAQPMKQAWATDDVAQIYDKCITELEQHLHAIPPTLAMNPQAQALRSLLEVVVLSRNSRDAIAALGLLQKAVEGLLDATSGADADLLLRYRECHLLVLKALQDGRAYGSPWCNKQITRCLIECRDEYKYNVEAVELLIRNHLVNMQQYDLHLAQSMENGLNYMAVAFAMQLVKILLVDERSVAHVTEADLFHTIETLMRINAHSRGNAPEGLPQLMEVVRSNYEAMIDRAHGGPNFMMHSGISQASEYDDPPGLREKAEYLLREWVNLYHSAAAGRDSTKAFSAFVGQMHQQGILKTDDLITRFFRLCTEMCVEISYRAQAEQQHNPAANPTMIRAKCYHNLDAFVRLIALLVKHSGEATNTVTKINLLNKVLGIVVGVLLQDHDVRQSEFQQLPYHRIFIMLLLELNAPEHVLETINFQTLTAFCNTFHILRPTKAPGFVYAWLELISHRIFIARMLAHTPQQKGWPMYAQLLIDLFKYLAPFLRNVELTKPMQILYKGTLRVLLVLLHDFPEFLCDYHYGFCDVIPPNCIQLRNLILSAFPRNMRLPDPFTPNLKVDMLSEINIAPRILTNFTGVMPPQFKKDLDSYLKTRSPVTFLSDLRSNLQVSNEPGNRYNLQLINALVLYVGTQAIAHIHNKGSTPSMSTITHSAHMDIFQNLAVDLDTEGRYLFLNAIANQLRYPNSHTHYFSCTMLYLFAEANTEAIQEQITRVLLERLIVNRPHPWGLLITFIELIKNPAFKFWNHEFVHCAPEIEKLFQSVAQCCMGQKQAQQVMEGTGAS"},
  "source": "paper PMC8249388",
  "target": "T1, HA-Bicc1 (WT), hemagglutinin epitope-tagged mouse Bicc1 (mouse) (UniProt Q99MQ1)",
  "T1 sequence": "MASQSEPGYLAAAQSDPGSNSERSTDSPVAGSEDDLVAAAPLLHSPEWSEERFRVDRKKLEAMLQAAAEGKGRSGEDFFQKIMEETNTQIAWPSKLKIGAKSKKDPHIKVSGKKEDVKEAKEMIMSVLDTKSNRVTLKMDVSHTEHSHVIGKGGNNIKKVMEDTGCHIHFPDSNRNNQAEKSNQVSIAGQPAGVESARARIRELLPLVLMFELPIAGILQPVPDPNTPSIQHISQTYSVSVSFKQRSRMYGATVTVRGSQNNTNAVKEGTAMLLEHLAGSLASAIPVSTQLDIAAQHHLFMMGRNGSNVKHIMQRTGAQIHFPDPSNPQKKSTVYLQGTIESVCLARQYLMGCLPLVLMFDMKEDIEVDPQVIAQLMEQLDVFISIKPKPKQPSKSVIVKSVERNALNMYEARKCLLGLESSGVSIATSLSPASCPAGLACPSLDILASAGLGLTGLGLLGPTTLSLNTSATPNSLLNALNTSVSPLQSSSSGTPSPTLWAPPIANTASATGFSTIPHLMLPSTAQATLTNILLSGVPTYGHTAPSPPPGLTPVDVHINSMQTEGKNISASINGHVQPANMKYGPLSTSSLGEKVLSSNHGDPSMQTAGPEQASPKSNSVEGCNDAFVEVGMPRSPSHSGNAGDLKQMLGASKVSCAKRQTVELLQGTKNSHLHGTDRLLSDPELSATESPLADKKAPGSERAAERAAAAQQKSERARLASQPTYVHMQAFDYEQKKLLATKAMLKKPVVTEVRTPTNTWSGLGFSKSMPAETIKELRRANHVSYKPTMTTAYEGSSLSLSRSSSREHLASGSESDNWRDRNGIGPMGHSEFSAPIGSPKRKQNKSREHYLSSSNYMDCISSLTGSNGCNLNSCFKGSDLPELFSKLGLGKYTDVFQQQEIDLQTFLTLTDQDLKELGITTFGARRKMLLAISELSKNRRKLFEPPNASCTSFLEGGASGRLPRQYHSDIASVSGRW",
  "assay": "co-IP; Extracts of transfected HEK293T cells (20 mM Tris-HCl pH 7.4, 2.5 mM MgCl2, 100 mM NaCl, 5% glycerol, 1 mM DTT, 0.05% NP-40) on anti-HA beads, 2.5 h at 4 °C; washes with 200 mM NaCl, 0.1% NP-40; immunoblot with antibodies to HA, Cnot1, FLAG; with or without RNase A (12.5 µg/mL, 10 min RT) before the beads",
  "note": "Results are given in words; binding and its absence hold for the method and conditions named. In cells and extracts the contact can be indirect. Some binding calls cover weakened binding; strength is not graded here. Tags and fused reporters may be left off the sequences shown.",
  "data": [
    {"substance": "Cnot3-Myc-FLAG, mouse Cnot3 (from UniProt Q8K0V4 1-751)", "values": [
      {"measurement": "binding", "value": "binds"}
    ]},
    {"substance": "endogenous Cnot1 (from UniProt A5YKK6 1-2376)", "values": [
      {"measurement": "binding", "value": "binds"}
    ]}
  ]
}
